Assay results reported in publication PMC7862700.
Some of the results follow. The source does not settle which construct or isoform was used.

biological target: T1, ETS1 (UniProt P14921); experiment: DAPPL (digital affinity profiling via proximity ligation, sequencing); conditions: 10 mM Tris-HCl pH 7.5, 50 mM NaCl, 1 mM DTT, 4% glycerol, room temperature, 30 min; GST-TFs on glutathione beads, 16-mer random dsDNA library, 0.1% …; high values mean tight binding; double strand, one strand shown; scale: fold enrichment (6-mer frequency, TF over GST control)
T1 sequence: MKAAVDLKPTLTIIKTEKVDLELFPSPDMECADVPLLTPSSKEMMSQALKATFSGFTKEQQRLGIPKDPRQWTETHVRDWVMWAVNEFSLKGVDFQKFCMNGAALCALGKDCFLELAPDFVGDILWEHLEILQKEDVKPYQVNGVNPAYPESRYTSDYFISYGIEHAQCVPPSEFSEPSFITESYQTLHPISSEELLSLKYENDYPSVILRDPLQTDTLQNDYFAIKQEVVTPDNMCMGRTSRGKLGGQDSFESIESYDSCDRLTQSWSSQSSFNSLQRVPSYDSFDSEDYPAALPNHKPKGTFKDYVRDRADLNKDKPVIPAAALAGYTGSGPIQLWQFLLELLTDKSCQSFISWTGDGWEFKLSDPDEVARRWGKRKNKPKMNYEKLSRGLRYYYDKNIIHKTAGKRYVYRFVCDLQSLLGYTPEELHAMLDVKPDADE

Row | Sequence | binding signal
1 | ATATAT | 1.49
2 | ATAAGT | 1.03
3 | CCCGGC | 1.13
4 | GTAACC | 1.06
5 | ACACGC | 1.11
6 | TGGGAA | 1
7 | AAATAC | 1.48
8 | AATGAC | 1.38
9 | TATGCT | 1.24
10 | ATACGC | 1.06
11 | ATTTAG | 1.21
12 | ACGATT | 1.42
13 | CCGGAT | 2.98
14 | ATTCGA | 1.41
15 | TTGCCC | 1.38
16 | AAAATA | 1.19
17 | ATGCGC | 1.15
18 | TCCGCA | 2.25
19 | AATTAA | 1.29
20 | CTGACG | 1.1

Row | Sequence | binding signal
21 | CCGTTC | 1.56
22 | TTAAAT | 1.13
23 | CCCCTG | 1.2
24 | CCAACC | 1.08
25 | GTATCA | 1.13
26 | ATCCAC | 1.18
27 | CGTCTT | 1.45
28 | ACTCCA | 1.21
29 | GGTCTA | 1.14
30 | CGTACA | 1.21
31 | GTTGTT | 1.14
32 | AATTCG | 1.23
33 | TGTTTA | 1.15
34 | TTACCT | 1.35
35 | CTGTTC | 1.41
36 | TTGGTC | 1.12
37 | AATGCG | 1.25
38 | TTCTTG | 1.47
39 | TCTTGG | 1.38
40 | CTGACC | 1.27

Part of the list above, in markdown:

| Row | Sequence | binding signal |
| --- | --- | --- |
| 32 | AATTCG | 1.23 |
| 33 | TGTTTA | 1.15 |
| 34 | TTACCT | 1.35 |
